Data on 2 compounds can be found in US8771723B2, “Compositions for reducing gastro-intestinal methanogenesis in ruminants” (priority 2009, dated 2014).

The nature of the data set: Feed intake, CO2/O2 exchange and heat production in respiration chambers. In kind it is in vivo, male Texel Cross lambs. Conditions: measuring week in respiration chambers, main effect (Yes); for Feed intake: limit-fed. Here is the method:
After the adaptation period four animals (one block) were housed in indirect respiration calorimetry chambers for a week to determine gaseous exchange. In the following weeks a new block of sheep was introduced to the chambers each week. Each respiration chamber housed an individual sheep. The respiration calorimetry chambers used are described in detail in […] et al. (1987). […] Net production or consumption of these gases was calculated from the difference in concentrations between in and outgoing air multiplied by air flow and subsequently recalculated to standard circumstances (0° C., 101 kPa, no water vapour). […] Before morning feeding, orts were removed from the feed bins and weighed to determine voluntary feed intake. During the week in the respiration chambers, feed availability was restricted to 95% of the feed consumed by the animal consuming the least feed within a block in the week prior to housing in the respiration chambers. Feed restriction was applied to avoid interactions between the effect of the additives on DMI and the effect on methane production.

With `O=S(=O)([O-])[O-].[Mg+2]` [Sulphate, MgSO4 (anhydrous)], the Feed intake is 2.38 g/lamb/day, the CO2-production is reported as 26.1 l/kg^0.75/day, the Heat production is listed as 555 kJ/kg^0.75/day and the O2-consumption is 26.3 l/kg^0.75/day.

5Ca(NO3)2•NH4NO3•10H2O [Nitrate] returned a Feed intake of 2.38 g/lamb/day, a CO2-production of 24.9 l/kg^0.75/day, a Heat production of 527 kJ/kg^0.75/day and an O2-consumption of 25.0 l/kg^0.75/day.
